Reference: PMC6390652 (Toxicological Sciences, 2018)

Tested on: human GI microtissue
Assay: MTT viability assay
Format: cell-based
Conditions: Caco-2, read-out: MTT IC50

CNC(=O)c1ccccc1Sc1ccc2c(/C=C/c3ccccn3)n[nH]c2c1 [Axitinib]
IC50: > 100 µM
